Experimental data reported in patent publication US20070117864A1, “Composition for preventing and treating hepatoma” (Tokyo University of Agr. & Tech. TLO Co., Ltd., priority 2003, published 2007).

Experiments:
[1] = fecal steroid excretion in hepatoma-bearing rats; assay type: in vivo, rat; details: final two days, mean ± SEM of 11 rats
Method: Male Donryu rats of four weeks old were purchased from NRC Haruna, Gumma, Japan, and were preliminarily fed for 6 days in quintuple cages in a room with a controlled environment with light period of 8:00 to 20:00, room temperature of 22±1° C., and relative humidity of 60±5%. For the first 3 days, the animals were fed ad libitum with a stock pellet diet (CE-2; CLEA Japan, Tokyo), and for the next 3 days, they were fed a basal diet containing 20% milk casein (20C) (Table 1) ad libitum together with tap water in a glass container. Following the completion of this preparatory raising, the rats were divided into three groups (11 animals per group) with equal average body weights of the respective groups were equal, and 1.0×10^7 of AH109A cells suspended in PBS (−) were transplanted in the back of all the rats. From the time immediately after transplantation, in the respective experimental groups, the animals were fed the experimental diets shown in Table 2.
During the experimental period, the body weight, food intake and solid tumor size (sum of length, width and height) were measured everyday. […]
The amounts of fecal steroids, neutral sterol (NS) and bile acid (BA), excreted into feces were measured. The feces were dried at 60° C., and the dry weight was measured; then, the feces were pulverized using a mixer and a mortar and pestle. […]

[2] = food intake, body weight gain and liver weight in hepatoma-bearing rats; assay type: in vivo, rat; details: for Food intake / Liver weight: mean ± SEM of 11 rats
Method: Male Donryu rats of four weeks old were purchased from NRC Haruna, Gumma, Japan, and were preliminarily fed for 6 days in quintuple cages in a room with a controlled environment with light period of 8:00 to 20:00, room temperature of 22±1° C., and relative humidity of 60±5%. For the first 3 days, the animals were fed ad libitum with a stock pellet diet (CE-2; CLEA Japan, Tokyo), and for the next 3 days, they were fed a basal diet containing 20% milk casein (20C) (Table 1) ad libitum together with tap water in a glass container. Following the completion of this preparatory raising, the rats were divided into three groups (11 animals per group) with equal average body weights of the respective groups were equal, and 1.0×10^7 of AH109A cells suspended in PBS (−) were transplanted in the back of all the rats. From the time immediately after transplantation, in the respective experimental groups, the animals were fed the experimental diets shown in Table 2. During the experimental period, the body weight, food intake and solid tumor size (sum of length, width and height) were measured everyday. On the day that the animals were killed, animals were deprived of experimental diets at 9:00, but freely given water until they were killed 4 hours later. Blood was collected from carotid, and the liver and solid tumors were excised. The collected blood was allowed to stand for approximately 2 hours at room temperature, and then centrifuged for 10 minutes at 3000 rpm (1750×g), 4° C., to obtain serum. This blood serum was frozen and stored at −20° C. The livers and solid tumors were washed with physiological saline, blotted on filter paper, and weighed. Furthermore, feces from the 19th to 21st days after transplantation were collected, and these feces were frozen and stored at −20° C. for the measurement of the amounts of steroids excreted from the body.

For `O=C1OCC(Cc2cccc(O)c2)C1Cc1cccc(O)c1` (stereo not shown) [Enterolactone, enterolactone], the “Steroid excretion Fecal dry weight” value ([1]; diet 10 ppm) was 2.87 ± 0.18 g/2 days, the “Steroid excretion Fecal dry weight” value ([1]; diet 100 ppm) was 2.99 ± 0.14 g/2 days and the Food intake ([2]; diet 10 ppm) was 433 ± 14 g/21 days. The Liver weight ([2]; diet 10 ppm) was 10.1 ± 0.5 g/rat, the Food intake ([2]; diet 100 ppm) was 472 ± 9 g/21 days and the Liver weight ([2]; diet 100 ppm) was 11.3 ± 4.0 g/rat. For the same compound, the “amount of food ingested, liver weight, lipid peroxides, liver lipid levels” value ([2]; respective diet groups compared) was “no significant differences”.
